# According to the supplement of paper PMC8090911:
# Counter-ions that a name gives are not always drawn. This is one part of the list. Most values come without repeats; read them as rough.
# Tested on: p95-ErbB2-MCF7
# Test: perinuclear lysosome accumulation (PNLA, size of LAMP2 puncta), robust Z-score vs plate median; higher = more perinuclear lysosome accumulation (reversal of invasive lysosome distribution)
# Details: 5 µM; 24 h
row,SMILES,perinuclear lysosome accumulation
1,CC(C)COCC(CN(Cc1ccccc1)c1ccccc1)N1CCCC1 (stereo unspecified) [Bepridil hydrochloride],2.67
2,CN[C@H](CC(C)C)C(=O)N[C@H]1C(=O)N[C@@H](CC(N)=O)C(=O)N[C@H]2C(=O)N[C@H]3C(=O)N[C@H](C(=O)N[C@H](C(=O)O)c4cc(O)cc(O)c4-c4cc3ccc4O)[C@H](O)c3ccc(c(Cl)c3)Oc3cc2cc(c3O[C@@H]2O[C@H](CO)[C@@H](O)[C@H](O)[C@H]2O[C@H]2C[C@](C)(N)[C@H](O)[C@H](C)O2)Oc2ccc(cc2Cl)[C@H]1O [Vancomycin hydrochloride],-1.11
3,CNS(=O)(=O)Cc1ccc2[nH]cc(CCN(C)C)c2c1 [Sumatriptan succinate],-1.13
4,NS(=O)(=O)c1cc2c(cc1Cl)N=CNS2(=O)=O [Chlorothiazide],1.22
5,CCOc1ccccc1OCC1CNCCO1 (stereo unspecified) [Viloxazine hydrochloride],-1.35
6,CC[C@H]1OC(=O)[C@H](C)[C@@H](O[C@H]2C[C@@](C)(OC)[C@@H](O)[C@H](C)O2)[C@H](C)[C@@H](O[C@@H]2O[C@H](C)C[C@H](N(C)C)[C@H]2O)[C@](C)(OC)C[C@@H](C)C(=O)[C@H](C)[C@@H](O)[C@]1(C)O [Clarithromycin],0.0472
7,CCCCOC(=O)c1ccc(N)cc1 [Butamben],-1
8,N=C(N)NC(=O)c1nc(Cl)c(N)nc1N [Amiloride hydrochloride dihydrate],0.243
9,O=C1NCN(c2ccccc2)C12CCN(CCCC(c1ccc(F)cc1)c1ccc(F)cc1)CC2 [Fluspirilen],4.32
10,CC(C)(C)C(=O)OCOC(=O)[C@@H]1N2C(=O)[C@@H](NC(=O)[C@H](N)c3ccccc3)[C@H]2SC1(C)C [Pivampicillin],-1.2
11,O=P(O)(O)C(Cl)(Cl)P(=O)(O)O [Clodronate],-0.657
12,CCCCOc1cc(C(=O)NCCN(CC)CC)c2ccccc2n1 [Dibucaine],-0.454
13,CCS(=O)(=O)CCn1c([N+](=O)[O-])cnc1C [Tinidazole],-1.12
14,O=C1CCc2cc(OCCCCc3nnnn3C3CCCCC3)ccc2N1 [Cilostazol],1.04
15,CCC1=C(C)CN(C(=O)NCCc2ccc(S(=O)(=O)NC(=O)N[C@H]3CC[C@H](C)CC3)cc2)C1=O [Glimepiride],-2.09
16,CC1(C)NC(=O)N(c2ccc([N+](=O)[O-])c(C(F)(F)F)c2)C1=O [Nilutamide],-0.0203
17,COC(=O)[C@@H]1[C@H]2C[C@H]3c4[nH]c5ccccc5c4CCN3C[C@@H]2CC[C@@H]1O [Yohimbine hydrochloride],-1.15
18,CCCCC(CC)CNC(=N)NC(=N)NCCCCCCNC(=N)NC(=N)NCC(CC)CCCC (stereo unspecified) [Alexidine dihydrochloride],2.12
19,COc1ccc2cc([C@@H](C)C(=O)O)ccc2c1 [(R) -Naproxen sodium salt],1.11
20,Nc1nc(=O)c2c([nH]1)NC[C@@H](CNc1ccc(C(=O)N[C@@H](CCC(=O)O)C(=O)O)cc1)N2C=O [Folinic acid calcium salt],-1.12
21,CCn1cc(C(=O)O)c(=O)c2cnc(N3CCCC3)nc21 [Piromidic acid],-0.305
22,O=S(=O)(O)CCS [Mesna],-1.52
23,O=C(O)c1cc(-c2ccc(F)cc2F)ccc1O [Diflunisal],0.966

# Already shown: entries from further up.
row,SMILES,perinuclear lysosome accumulation
14,O=C1CCc2cc(OCCCCc3nnnn3C3CCCCC3)ccc2N1 [Cilostazol],1.04
15,CCC1=C(C)CN(C(=O)NCCc2ccc(S(=O)(=O)NC(=O)N[C@H]3CC[C@H](C)CC3)cc2)C1=O [Glimepiride],-2.09
16,CC1(C)NC(=O)N(c2ccc([N+](=O)[O-])c(C(F)(F)F)c2)C1=O [Nilutamide],-0.0203

# Continued:

row,SMILES,perinuclear lysosome accumulation
1,CCCCNC(=O)NS(=O)(=O)c1ccc(C)cc1 [Tolbutamide],-0.326
2,CC(=O)[C@H]1CC[C@H]2[C@@H]3C[C@H](C)C4=CC(=O)CC[C@]4(C)[C@H]3[C@@H](O)C[C@]12C [Medrysone],-0.995
3,OCc1cc(C(O)CNCCCCCCOCCCCc2ccccc2)ccc1O (stereo unspecified) [Salmeterol],0.941
4,O=C(O)Cc1sc(-c2ccccc2)nc1-c1ccc(Cl)cc1 [Fentiazac],0.313
5,Cc1nc2n(c(=O)c1CCN1CCC(c3noc4cc(F)ccc34)CC1)CCCC2 [Risperidone],-0.624
6,CNCCC(Oc1ccc(C(F)(F)F)cc1)c1ccccc1 (stereo unspecified) [Fluoxetine hydrochloride],-3.09
7,CC1CS(=O)(=O)CCN1/N=C/c1ccc([N+](=O)[O-])o1 (stereo unspecified) [Nifurtimox],-0.556
8,CN1[C@@H](CC(=O)c2ccccc2)CCC[C@H]1C[C@H](O)c1ccccc1 [Lobeline alpha (-) hydrochoride],-0.709
9,c1ccc2[nH]c(-c3cscn3)nc2c1 [Tiabendazole],-0.339
10,CCOC(=O)C1=C[C@]2(CC)CCCN3CCc4c(n1c1ccccc41)[C@@H]32 [Vinpocetine],-0.306
11,Cc1cccc(CN2CCN(C(c3ccccc3)c3ccc(Cl)cc3)CC2)c1 (stereo unspecified) [Meclozine dihydrochloride],-3.18
12,O=C(O)CCC(=O)Nc1ccc(S(=O)(=O)Nc2nccs2)cc1 [Succinylsulfathiazole],-0.478
13,COc1cnc(NS(=O)(=O)c2ccc(N)cc2)nc1 [Sulfameter],0.284
14,CCCCC(C)(O)C/C=C/[C@H]1[C@H](O)CC(=O)[C@@H]1CCCCCCC(=O)OC (mixture of isomers) [Misoprostol],-0.71
15,CNCCC(Oc1ccccc1OC)c1ccccc1 (stereo unspecified) [Nisoxetine hydrochloride],-0.847
16,COc1ccccc1O [Guaiacol],-0.0556
17,CC(=O)N(CC(C)C(=O)O)c1c(I)cc(I)c(N)c1I (stereo unspecified) [Iocetamic acid],-1.12
18,CN(C)[C@@H]1C(O)=C(C(N)=O)C(=O)[C@@]2(O)C(O)=C3C(=O)c4c(O)ccc(Cl)c4[C@@](C)(O)[C@H]3C[C@@H]12 [Chlortetracycline hydrochloride],-0.667
19,C[C@]12CC[C@@H]3c4ccc(O)cc4CC[C@H]3[C@@H]1CCC2=O [Estrone],0.0247
20,COc1ccc2[nH]c([S+]([O-])Cc3ncc(C)c(OC)c3C)nc2c1 (stereo unspecified) [Omeprazole],-0.877
21,Cc1ccccc1N1C(=O)c2cc(S(N)(=O)=O)c(Cl)cc2NC1C (stereo unspecified) [Metolazone],1.26
22,Cc1cc(-n2c(=O)[nH]c(=O)n(C)c2=O)ccc1Oc1ccc(SC(F)(F)F)cc1 [Toltrazuril],0.0425
23,C=CC1=C(C(=O)O)N2C(=O)[C@@H](NC(=O)/C(=N\OCC(=O)O)c3csc(N)n3)[C@H]2SC1 [Cefixime],-1.38
